Measurements as given in PMC2683942, “Unc5B Interacts with FLRT3 and Rnd1 to Modulate Cell Adhesion in Xenopus Embryos” (PLoS ONE, 2009).
No constants are given. Whether binding was seen depends on the method and setting. Some binding calls cover weakened binding; strength is not graded here. Tags and fused reporters may be left off the sequences shown.

Sequences of proteins named here, by UniProt entry; tags and fusion partners are left off. Residues count along the entry.
UniProt Q8JGT4, residues 31-943: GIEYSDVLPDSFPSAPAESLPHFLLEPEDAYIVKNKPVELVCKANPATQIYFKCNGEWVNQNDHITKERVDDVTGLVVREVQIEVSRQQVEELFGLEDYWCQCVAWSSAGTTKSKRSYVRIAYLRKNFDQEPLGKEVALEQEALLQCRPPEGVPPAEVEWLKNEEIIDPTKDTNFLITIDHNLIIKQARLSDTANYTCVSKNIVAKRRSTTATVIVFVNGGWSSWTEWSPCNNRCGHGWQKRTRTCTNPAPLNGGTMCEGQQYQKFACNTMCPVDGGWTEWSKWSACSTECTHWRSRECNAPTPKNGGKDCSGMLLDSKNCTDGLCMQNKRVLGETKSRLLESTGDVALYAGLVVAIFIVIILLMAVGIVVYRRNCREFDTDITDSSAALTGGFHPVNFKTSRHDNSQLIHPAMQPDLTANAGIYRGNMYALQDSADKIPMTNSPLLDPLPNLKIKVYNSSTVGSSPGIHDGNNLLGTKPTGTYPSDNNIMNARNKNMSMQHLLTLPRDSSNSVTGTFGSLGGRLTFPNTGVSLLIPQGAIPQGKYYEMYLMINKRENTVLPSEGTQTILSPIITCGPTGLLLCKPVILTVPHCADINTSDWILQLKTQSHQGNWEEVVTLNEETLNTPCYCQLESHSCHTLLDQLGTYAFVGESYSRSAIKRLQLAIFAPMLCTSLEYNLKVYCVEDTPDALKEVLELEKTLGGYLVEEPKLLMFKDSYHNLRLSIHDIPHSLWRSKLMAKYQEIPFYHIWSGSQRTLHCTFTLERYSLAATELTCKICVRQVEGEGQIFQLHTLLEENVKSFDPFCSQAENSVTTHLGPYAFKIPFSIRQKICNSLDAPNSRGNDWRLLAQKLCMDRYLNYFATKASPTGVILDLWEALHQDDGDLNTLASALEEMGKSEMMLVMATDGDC

Target: T1, Xenopus Unc5B (Xenopus, UniProt Q8JGT4 31-943)
T1 construct: Netrin receptor Unc5B, Xenopus; Constructs are in Text S1; source: HEK293T, transfected, on cells
Experiment: cell surface binding of an alkaline phosphatase fusion protein, chromogenic stain; transfected HEK293T cells incubated 1 h at RT with concentrated AP-FLRT3ΔTM conditioned medium (3 to 8 U/ml AP activity) in DMEM, 10% FCS, 50 mM HEPES; washed with PBS; bound AP stained with Fast Red

binding: binds
B1: soluble alkaline phosphatase-FLRT3 ectodomain fusion protein (AP-FLRT3ΔTM) (domain or fragment, Xenopus, UniProt Q70AK3 29-527, looked up)
chain: KPCPSVCRCDAGFIYCNDRDLTSIPSGIPDDATTLYLQNNQINNAGIPSDLKGLDKVERIYLYRNSLDEFPINLPKNVKELHLQENNIRTITYDALLQIPFIEELHLDDNSVSAVSIEDGAFRDNIFLRLLFLSRNHLSTIPWGLPKTIEELRLDDNRISTISEISLQDLTNLKRLVLDGNLLNNNGLGERVFMNLINLTELSLVRNSLTSPPANLPGTSLRKLYLQENHMNYVPPNSFADLTQLYRLDMSNNNLTALPQGIFDDLDNLTQLFLRNNPWYCGCKMKWVRDWLQSLPSKVNVRGLMCQAPERVRGMTIKDLNKELFDCKDRIGSNTIHVTTTMLNSLLPAQGQWPVPVTKQPEIRPPDINKIFRTTPIPVKKIITIQVKSITTETIYISWKVALPMTALRLSWQLGHSPVFGSITETIVTGDRAEYLLTALEPESPYRICMVPMETGNIYLSDETPVCIETETAPLKMYNPTTTLNREQEKEPYKNSSLP
notes: FLRT3, Xenopus, ectodomain (ΔTM); also called AP-tagged FLRT3ΔTM; source: conditioned medium, concentrated
